No constants are given. Whether binding was seen depends on the method and setting. In cells and extracts the contact can be indirect. A result given as binding can be weak or reduced; the word gives no strength. Tags and fused reporters may be left off the sequences shown.
Target: T1, FLAG-tagged ELK4 (wild type) (human) (UniProt P28324)
T1 sequence: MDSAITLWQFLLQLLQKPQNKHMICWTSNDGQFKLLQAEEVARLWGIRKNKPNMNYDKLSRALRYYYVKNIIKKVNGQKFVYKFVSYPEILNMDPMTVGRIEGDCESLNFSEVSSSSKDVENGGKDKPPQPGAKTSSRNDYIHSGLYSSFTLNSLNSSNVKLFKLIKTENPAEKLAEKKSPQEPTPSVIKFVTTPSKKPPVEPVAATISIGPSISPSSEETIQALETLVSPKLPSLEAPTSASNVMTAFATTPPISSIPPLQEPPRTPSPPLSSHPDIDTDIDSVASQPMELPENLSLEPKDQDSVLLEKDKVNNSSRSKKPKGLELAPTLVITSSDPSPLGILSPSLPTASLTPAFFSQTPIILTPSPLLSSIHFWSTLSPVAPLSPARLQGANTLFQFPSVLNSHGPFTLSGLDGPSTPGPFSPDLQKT
Experiment: co-IP; ELK4 with full-length SP1 or SP3 and their serial truncations (domain deletions); cell line not stated

SP1 with deletion of the D domain (domain or fragment)
binding: binds

SP3 with loss of the zinc finger domain (domain or fragment)
binding: binds

From PMC10646254
